Results are given in words; binding and its absence hold for the method and conditions named. For some assays here: In cells and extracts the contact can be indirect. Some entries that bind do so weakly or less than the wild type. For some assays here: Where a sequence is shown, tags or fusion partners need not be part of it.

Chains of the proteins cited; added tags and fusions are not shown.
UniProt Q9GZX5: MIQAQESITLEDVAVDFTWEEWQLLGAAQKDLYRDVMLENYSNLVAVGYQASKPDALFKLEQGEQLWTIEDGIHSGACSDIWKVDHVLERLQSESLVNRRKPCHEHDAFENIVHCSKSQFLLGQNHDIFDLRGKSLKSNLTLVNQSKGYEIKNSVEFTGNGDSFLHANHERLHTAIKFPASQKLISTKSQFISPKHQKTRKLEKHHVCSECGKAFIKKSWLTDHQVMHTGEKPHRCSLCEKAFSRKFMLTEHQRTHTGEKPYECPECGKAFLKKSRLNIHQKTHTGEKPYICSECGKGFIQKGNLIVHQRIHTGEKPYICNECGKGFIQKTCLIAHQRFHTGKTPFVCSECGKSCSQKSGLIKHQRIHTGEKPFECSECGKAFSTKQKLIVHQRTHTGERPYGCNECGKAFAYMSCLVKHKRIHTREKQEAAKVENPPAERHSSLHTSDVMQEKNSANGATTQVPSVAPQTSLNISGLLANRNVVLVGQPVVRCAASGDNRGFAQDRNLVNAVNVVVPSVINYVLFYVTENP

Results on 2 substances are retold here after article PMC6275281.

The target in assay [1] is T1, ZNF121 (pGBKT7-ZNF121), zinc finger protein 121 (human) (UniProt P58317).
T1 sequence: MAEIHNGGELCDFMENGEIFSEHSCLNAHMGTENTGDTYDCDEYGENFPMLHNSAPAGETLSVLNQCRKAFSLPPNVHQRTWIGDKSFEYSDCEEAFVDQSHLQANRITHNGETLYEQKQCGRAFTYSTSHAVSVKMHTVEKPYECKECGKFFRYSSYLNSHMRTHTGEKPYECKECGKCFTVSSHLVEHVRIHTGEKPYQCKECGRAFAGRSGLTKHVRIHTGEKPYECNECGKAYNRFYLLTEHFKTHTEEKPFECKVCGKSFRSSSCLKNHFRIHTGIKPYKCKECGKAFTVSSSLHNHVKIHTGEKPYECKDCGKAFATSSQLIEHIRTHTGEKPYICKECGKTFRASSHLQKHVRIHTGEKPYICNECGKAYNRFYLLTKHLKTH
Briefly: two-hybrid; cotransformation of Y2HGold yeast cells with pGBKT7 and pGADT7 plasmids; QDO/X/A plates, 30 °C, 4 days.

Assay [2] has as its target T2, FLAG-ZNF121 (pCI-FLAG-ZNF121) (human) (UniProt P58317).
T2 sequence: T1 sequence
Briefly: co-IP; transfected 293T cells lysed 24 h later (150 mM NaCl, 50 mM Tris/HCl pH 7.4, 1% NP-40, 10% glycerin, 1 mM EDTA); overnight with anti-FLAG M2 affinity gel, anti-c-Myc magnetic beads or agarose-conjugated anti-GFP; western blot.

With “ZBRK1 (pGADT7-ZBRK1), zinc finger and BRCA1-interacting protein with a KRAB domain 1 (from UniProt Q9GZX5 1-532)”, in assay [1], the binding entry is recorded as “binds”.
Turning to “Myc-ZBRK1 (pCI-Myc-ZBRK1) (from UniProt Q9GZX5 1-532)”, the binding entry in assay [2] was “binds”.
